From patent publication US20240026028A1
No constants are given. Whether binding was seen depends on the method and setting. Some entries that bind do so weakly or less than the wild type.

Chains of the proteins cited; added tags and fusions are not shown. Residues count along the entry.
UniProt P21860, residues 20-643: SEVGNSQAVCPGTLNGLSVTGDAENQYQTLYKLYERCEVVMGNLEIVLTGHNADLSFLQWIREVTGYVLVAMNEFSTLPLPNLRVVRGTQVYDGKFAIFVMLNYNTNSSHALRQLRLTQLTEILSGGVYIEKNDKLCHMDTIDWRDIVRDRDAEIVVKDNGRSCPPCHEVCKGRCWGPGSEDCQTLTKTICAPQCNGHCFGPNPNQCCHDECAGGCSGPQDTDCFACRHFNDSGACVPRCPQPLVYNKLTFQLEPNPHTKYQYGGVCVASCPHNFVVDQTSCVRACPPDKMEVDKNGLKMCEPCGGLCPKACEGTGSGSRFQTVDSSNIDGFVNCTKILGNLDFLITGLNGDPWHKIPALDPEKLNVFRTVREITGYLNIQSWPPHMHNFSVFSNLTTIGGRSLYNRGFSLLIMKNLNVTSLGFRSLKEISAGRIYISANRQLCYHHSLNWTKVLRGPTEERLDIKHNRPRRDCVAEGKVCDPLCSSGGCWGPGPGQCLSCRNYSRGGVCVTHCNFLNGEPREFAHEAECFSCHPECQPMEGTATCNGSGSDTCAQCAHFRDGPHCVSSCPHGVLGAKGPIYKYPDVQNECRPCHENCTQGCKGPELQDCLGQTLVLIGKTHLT

Target: HER3 protein (free, coated on the ELISA plate) (UniProt P21860)
Assay: ELISA, HER3 protein coated on the plate

B1: fully human antibody molecule HER3-29 (antibody, human IgG1, kappa, V domains shown)
VH: QVQLVQSGGGLVQPGRSLRLSCAASGFTFDDYAMHWVRQAPGKGLEWVSGISWNSGSIGYADSVKGRFTISRDNAKNSLYLQMNSLRAEDTALYYCAKEGLPGLDYWGQGTLVTVSS
VL: DIQMTQSPSSLSASIGDRATITCRASQHVGTYLNWYQQKPGKTPKLLISGAANLQSGVPSRFSGSGSGTDFTLTISSLQPEDFATYYCQQSYNTPPFSFGQGTKVEIKR
  binding: binds
